Reference: paper PMC6735945
For at least one entry, the source does not settle the construct or the ends of the probe. At least one verdict was read from the data and is not stated in words by the source.

System: Hsmar1 transposase (wild type)
Test: EMSA
Conditions: 5 mM Ca2+; Fusion: 20 mM HEPES pH 7.5, 250 mM KCl, 2 mM MgCl2, 0.01% Triton X-100, 0.1 mg/ml BSA, 10% glycerol, 37 C 20 min; native transposase: 20 mM HEPES pH 7.5, 100 mM NaCl; recombinant protein

**Q.** Does “ACTAGTGGATCCCCCGGGCTGCAGGAATTCTATTAGGTTGGTGCAAAAGTAATTGCGGTTTTGGATCCCTGT (double strand) [transposon-end oligoduplex]” bind?
**A.** Result: binds
